{
  "source": "paper PMC4845015",
  "molecular_target": "T1, receptor-interacting serine/threonine kinase (RIPK) 1, mouse (mouse (endogenous in mouse brain)), Q60855",
  "T1 chain": "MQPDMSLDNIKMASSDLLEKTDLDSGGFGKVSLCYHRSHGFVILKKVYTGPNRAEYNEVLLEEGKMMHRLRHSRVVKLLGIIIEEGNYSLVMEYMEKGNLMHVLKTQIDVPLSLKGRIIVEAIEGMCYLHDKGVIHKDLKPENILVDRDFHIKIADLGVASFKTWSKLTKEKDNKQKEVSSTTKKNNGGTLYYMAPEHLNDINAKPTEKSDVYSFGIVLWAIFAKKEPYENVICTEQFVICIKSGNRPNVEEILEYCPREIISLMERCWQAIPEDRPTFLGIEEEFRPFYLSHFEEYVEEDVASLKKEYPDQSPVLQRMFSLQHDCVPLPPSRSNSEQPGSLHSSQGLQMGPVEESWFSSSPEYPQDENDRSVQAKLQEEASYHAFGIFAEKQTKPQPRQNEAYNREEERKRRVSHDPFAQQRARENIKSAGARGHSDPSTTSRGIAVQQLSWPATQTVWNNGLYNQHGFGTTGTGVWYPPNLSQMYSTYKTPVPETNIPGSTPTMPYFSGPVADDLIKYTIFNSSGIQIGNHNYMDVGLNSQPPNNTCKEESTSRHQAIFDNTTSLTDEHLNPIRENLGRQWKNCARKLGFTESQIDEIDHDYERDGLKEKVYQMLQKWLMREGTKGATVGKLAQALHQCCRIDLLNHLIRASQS",
  "assay": "proximity ligation; Duolink In Situ PLA with anti-RIPK1 and anti-RIPK3 antibodies on paraffin-embedded brain sections (hippocampal area CA3) of 7-week-old Hrs flox/flox; CaMKIIα-cre mice",
  "details": "remark: other sources report otherwise",
  "note": "No constants are given. Whether binding was seen depends on the method and setting. In cells and extracts the contact can be indirect. Some entries that bind do so weakly or less than the wild type.",
  "data": [
    {"binder": "receptor-interacting serine/threonine kinase (RIPK) 3, mouse, Q9QZL0 1-486 (protein) MSSVKLWPTGASAVPLVSREELKKLEFVGKGGFGVVFRAHHRTWNHDVAVKIVNSKKISWEVKAMVNLRNENVLLLLGVTEDLQWDFVSGQALVTRFMENGSLAGLLQPECPRPWPLLCRLLQEVVLGMCYLHSLNPPLLHRDLKPSNILLDPELHAKLADFGLSTFQGGSQSGSGSGSGSRDSGGTLAYLDPELLFDVNLKASKASDVYSFGILVWAVLAGREAELVDKTSLIRETVCDRQSRPPLTELPPGSPETPGLEKLKELMIHCWGSQSENRPSFQDCEPKTNEVYNLVKDKVDAAVSEVKHYLSQHRSSGRNLSAREPSQRGTEMDCPRETMVSKMLDRLHLEEPSGPVPGKCPERQAQDTSVGPATPARTSSDPVAGTPQIPHTLPFRGTTPGPVFTETPGPHPQRNQGDGRHGTPWYPWTPPNPMTGPPALVFNNCSEVQIGNYNSLVAPPRTTASSSAKYDQAQFGRGRGWQPFHK", "values": [
      {"measurement": "binding", "result": "binds"}
    ]}
  ]
}
